No constants are given. Whether binding was seen depends on the method and setting. Some binding calls cover weakened binding; strength is not graded here.
Target: recombinant calreticulin rCRT/18-412 (UniProt P14211)
Assay: SEC; Sephadex G-75 column 80 x 2 cm; 5 mL of rCRT at 10 mg/mL loaded; eluted with 0.9% NaCl at 20 mL/h; oligomers and monomers fractionated; both purified

Protein sequences, listed by entry. Tags and fused reporters are not part of them. Residues count along the entry.
UniProt P14211, residues 18-412: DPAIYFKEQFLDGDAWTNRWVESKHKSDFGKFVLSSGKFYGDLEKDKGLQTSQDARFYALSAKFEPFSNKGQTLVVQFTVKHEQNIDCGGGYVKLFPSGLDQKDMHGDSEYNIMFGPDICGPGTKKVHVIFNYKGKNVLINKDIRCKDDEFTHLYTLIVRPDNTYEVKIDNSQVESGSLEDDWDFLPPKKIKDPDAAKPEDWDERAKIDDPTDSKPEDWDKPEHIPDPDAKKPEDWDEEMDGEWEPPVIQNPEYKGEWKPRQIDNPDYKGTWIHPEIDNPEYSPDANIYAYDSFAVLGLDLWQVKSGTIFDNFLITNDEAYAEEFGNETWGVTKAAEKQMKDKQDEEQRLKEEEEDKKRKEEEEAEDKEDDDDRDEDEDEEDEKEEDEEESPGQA

Substance: recombinant calreticulin rCRT/18-412 (from UniProt P14211 18-412) (domain or fragment)
- binding: binds

— paper PMC3958890
